“Also recorded” adds a separate entry of the source. At least one structure is not confirmed: it was looked up by name or label, or the drawing left a doubt.
Assays:
G actin [1] = assay: DNase I stainable G actin in C2C12 myotubes; assay type: cell-based
MKL1 = MKL1 cellular localization in C2C12 myoblasts; assay type: cell-based; details: compound alone
[2] = system: SRF transcriptional activity; assay: SRF transcriptional activity, 4x CArG (SRE) promoter luciferase reporter in C2C12 cells; assay type: cell-based; details: for SRF transcriptional activity at basal level: C2C12 myotubes, experimentally induced insulin resistance, FIG. 4
MKL1 and G actin complex = assay: MKL1 coimmunoprecipitation with beta actin, nuclear and cytosolic fractions of C2C12 myotubes; assay type: cell-based; details: compared to serum stimulated state
G actin [3] = assay: G actin staining in diet induced obesity (DIO) mice; assay type: in vivo
[4] = system: SRF target genes (ZYX, VCL, PDLIM7); assay: SRF target gene expression in muscle of DIO and Ob/Ob mice; assay type: in vivo; details: DIO (high fat chow) and Ob/Ob mice; FIGS. 3A-B

Structure (SMILES)	amount of DNase I stainable G actin (G actin [1])	MKL1 localization (MKL1)	SRF transcriptional activity at basal level [2]	nuclear proportion of G actin coimmunoprecipitated with MKL1 (MKL1 and G actin complex)	4x CArG promoter activity ([2]; C2C12 myoblasts, overnight treatment with 100 uM dexamethasone, FIG. 11B)	decrease in G actin staining (G actin [3])	elevated expression of SRF target genes (ZYX, VCL, PDLIM7) in muscle [4]
O=c1cc(N2CCOCC2)oc2c(-c3ccccc3)cccc12 [LY294002]	dramatically decreased	retained in the nucleus	dramatically increased	–	–	–	–
C[C@@H]1C[C@H]2[C@@H]3CCC4=CC(=O)C=C[C@]4(C)[C@@]3(F)[C@@H](O)C[C@]2(C)[C@@]1(O)C(=O)CO [dexamethasone]	dramatically decreased	retained in the nucleus; also recorded: predominantly nuclear	dramatically increased	dramatically decreased	activated	–	–
CN(CCOc1ccc(CC2SC(=O)NC2=O)cc1)c1ccccn1 (stereo not shown) [rosiglitazone]	–	–	–	–	–	partially normalized	normalized

Reference: patent publication US8524661B2, “Inhibiting serum response factor (SRF) to improve glycemic control” (Joslin Diabetes Center, Inc., priority 2008, dated 2013)
